Laboratory results published in PMC7819943, “Rice protein-binding microarrays: a tool to detect cis-acting elements near promoter regions in rice”.
The other results are listed elsewhere or left out.

What follows are sequences tested against T1, OsSMF1 (Oryza sativa, UniProt Q6ZLB0 1-436) (assay: protein-binding microarray (RPBM); PBS, 2% BSA, 51.3 ng/ul salmon testes DNA, 50 uM zinc acetate, 200 nM TF, 25 C, 1 h; high values mean tight binding). Settings: protein: recombinant; tags: N-terminal polyhistidine and DsRed monomer fusion (pET32a); chain copies: 2; label: CyDye5-dUTP incorporated in the synthesized complementary strand; 3' TTTTT single-stranded linker to array surface; dsDNA, one strand shown.
T1 sequence: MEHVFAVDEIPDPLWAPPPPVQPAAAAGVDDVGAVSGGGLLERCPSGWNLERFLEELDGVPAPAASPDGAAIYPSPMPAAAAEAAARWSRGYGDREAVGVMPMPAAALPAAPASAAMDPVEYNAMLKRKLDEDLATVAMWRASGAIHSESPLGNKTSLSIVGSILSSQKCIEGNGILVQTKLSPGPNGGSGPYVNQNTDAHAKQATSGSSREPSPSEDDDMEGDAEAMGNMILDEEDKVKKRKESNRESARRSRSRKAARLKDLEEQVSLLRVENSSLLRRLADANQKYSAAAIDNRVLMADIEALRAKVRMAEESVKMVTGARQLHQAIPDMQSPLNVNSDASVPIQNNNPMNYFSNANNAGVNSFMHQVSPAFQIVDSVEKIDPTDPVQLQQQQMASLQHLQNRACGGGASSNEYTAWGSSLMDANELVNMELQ
In short: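 Binding signal is reported as fluorescence intensity per feature (arbitrary units) from an Axon 4000B scanner. Incubation used 200 nM of each Ni–NTA-purified, N-terminally polyhistidine- and DsRed-fused transcription factor from E. coli BL21-CodonPlus on a double-stranded custom Agilent array for 1 h at 25 °C, with 50 µM zinc acetate in the buffer, followed by washing.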

| Sequence | binding signal |
| --- | --- |
| CGTGCCGCCTCACCTCCTCCCTCCCACGCACCGCCTCACCCGGAGTCACCTAGTGCAG | 3330 fluorescence intensity (a.u.) |
| TTGACGAGCCTTTTGGCCAACTCGAGAGTGACGTCAGCGCCGGAGTCACCTAGTGCAG | 33200 fluorescence intensity (a.u.) |
| GCCAGCCCATTGATGAGTCAGCAAAGGATCAGATCGTGAGCGGAGTCACCTAGTGCAG | 14500 fluorescence intensity (a.u.) |
| TTATCACTCTTGTCATAAATTAAGCTGCAAGAATCAGATGCGGAGTCACCTAGTGCAG | 3340 fluorescence intensity (a.u.) |
| CCACCTCCACCGCACGGAAACCCTCGCCCGGCGTGGATTCCGGAGTCACCTAGTGCAG | 3250 fluorescence intensity (a.u.) |
| GTTAGAAAACGATATATATATAAGTAGATATCACAACATGCGGAGTCACCTAGTGCAG | 3890 fluorescence intensity (a.u.) |
| TCTAAATATAAGTGACTAGGCATTGGACAGCCCCGTCGTTCGGAGTCACCTAGTGCAG | 11000 fluorescence intensity (a.u.) |
| TCCAGATGTTGGCTAATTCTAAGGTTTGACACGTCCTCTGCGGAGTCACCTAGTGCAG | 10200 fluorescence intensity (a.u.) |
| CCACCACTGTGGCGCCTGACACAGCTCACACCTTTGACGACGGAGTCACCTAGTGCAG | 36700 fluorescence intensity (a.u.) |
| TTTTCATTTGCTTATGCTGTTGATGACGAGGACGCAACGTCGGAGTCACCTAGTGCAG | 6910 fluorescence intensity (a.u.) |
| TCCAGCGCCTTCGTCTTCTTCGACCTCCTCCTCCGAAGGCCGGAGTCACCTAGTGCAG | 19300 fluorescence intensity (a.u.) |
| GGCCGGAGTGGATGGGGATTCGAGCGTGTGTGTGAGAGAGCGGAGTCACCTAGTGCAG | 3740 fluorescence intensity (a.u.) |
| ACTCTACCAACCACATCAGAGTTAGTTCATCTCCTCCTTGCGGAGTCACCTAGTGCAG | 3260 fluorescence intensity (a.u.) |
| CCACCTCTCTCTCTCTCTCTCCCACGCCACGCCACGCCACCGGAGTCACCTAGTGCAG | 3700 fluorescence intensity (a.u.) |
| TCATGGCAGTTGAACAAGAACAGTCATCTGGGCAACATCCCGGAGTCACCTAGTGCAG | 3260 fluorescence intensity (a.u.) |
| ATAGAAAGTCCGGTACATGTCTCGCTCCGGTTGGTATACGCGGAGTCACCTAGTGCAG | 30100 fluorescence intensity (a.u.) |
| AATCATAAAGTTGGTGTTTTCCTCGGTGTCGATAGTGCTCCGGAGTCACCTAGTGCAG | 20700 fluorescence intensity (a.u.) |
| TTCTTTGTGTTTGTGTGACTTGTACGTGTCAGCCAGCCACCGGAGTCACCTAGTGCAG | 5900 fluorescence intensity (a.u.) |
| ACGCCACCGTCGTCGGCTACTACGCTCCACGCAGGGATGCCGGAGTCACCTAGTGCAG | 3670 fluorescence intensity (a.u.) |
| GCCATCAGGGGAATGTACAGTGACGTCCTCGCGCTCGCGGCGGAGTCACCTAGTGCAG | 4300 fluorescence intensity (a.u.) |
| CTGGACATGATCGGCACGATGACGCTAATCCACGCTGAGCCGGAGTCACCTAGTGCAG | 3680 fluorescence intensity (a.u.) |
| GGGTGGCCGGGGAAGGAGATGGTGACGTCGGGCAGCACTCCGGAGTCACCTAGTGCAG | 3930 fluorescence intensity (a.u.) |
| GGTGGTCGGGGCTCTGACGCGGCGGGGCGGCGGAGGTGGTCGGAGTCACCTAGTGCAG | 5430 fluorescence intensity (a.u.) |

Copied from the list:
Value of TCTAAATATAAGTGACTAGGCATTGGACAGCCCCGTCGTTCGGAGTCACCTAGTGCAG under binding signal: 11000 fluorescence intensity (a.u.)
Value of GCCATCAGGGGAATGTACAGTGACGTCCTCGCGCTCGCGGCGGAGTCACCTAGTGCAG under binding signal: 4300 fluorescence intensity (a.u.)
